These are yes or no findings as the source states them, for the method shown. Binding seen in cells or lysates may run through a third protein. Some results given as binding are weak or reduced against the parent protein; the word gives no strength. Tags and fused reporters may be left off the sequences shown.

This experiment deals with T1, ANXA6-Flag (annexin A6 with Flag tag, exosomal) (UniProt P08133).
T1 sequence: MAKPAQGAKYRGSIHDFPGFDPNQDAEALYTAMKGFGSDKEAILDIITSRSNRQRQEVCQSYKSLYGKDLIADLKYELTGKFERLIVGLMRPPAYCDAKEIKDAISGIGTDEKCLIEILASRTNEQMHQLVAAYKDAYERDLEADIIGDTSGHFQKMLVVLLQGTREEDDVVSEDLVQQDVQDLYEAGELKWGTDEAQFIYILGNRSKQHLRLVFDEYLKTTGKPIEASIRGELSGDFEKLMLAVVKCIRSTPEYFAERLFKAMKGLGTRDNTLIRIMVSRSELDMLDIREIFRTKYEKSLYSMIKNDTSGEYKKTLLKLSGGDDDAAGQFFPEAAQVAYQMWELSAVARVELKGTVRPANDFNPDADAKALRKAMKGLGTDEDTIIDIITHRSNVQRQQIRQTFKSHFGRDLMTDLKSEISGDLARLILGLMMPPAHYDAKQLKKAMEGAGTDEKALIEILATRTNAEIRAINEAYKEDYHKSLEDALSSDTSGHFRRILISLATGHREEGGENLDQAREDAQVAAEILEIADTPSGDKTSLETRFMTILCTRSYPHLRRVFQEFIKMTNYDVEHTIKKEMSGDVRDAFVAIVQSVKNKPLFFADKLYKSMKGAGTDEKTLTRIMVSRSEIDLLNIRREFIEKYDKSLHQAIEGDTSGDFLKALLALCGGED
Description: co-IP; lysates (RIPA buffer) of MDA-231 cells treated with 231-A6-Flag-exo; IP with anti-Flag, anti-ANXA6 or anti-EGFR antibody or IgG control on protein A agarose, 4 °C; western blot for ANXA6, Flag and EGFR. In general terms: A western blot detects proteins with antibodies after separation by electrophoresis.

Consider “EGFR (endogenous, MDA-231 cells) (from UniProt P00533 25-1210) (receptor)”, for which the binding entry was “binds”.

Source of the values: publication PMC8266800.
